# Measured values reported in the supplement of paper PMC4635364.
# Counter-ions that a name gives are not always drawn. The list shows a part of the results. Single values are uncertain here, since repeats match poorly.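 ReNCell VM, a human fetal ventral-midbrain neural progenitor line, was differentiated without mitogens. Blinded raters scored images stained for doublecortin (early neurons) or tyrosine hydroxylase (dopaminergic neurons) against untreated wells (0 = no change). Scores were averaged across repeats and both raters, and compounds averaging 2 or more were selected as hits for retesting.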
# Tests used:
# ReNCell VM [1] = assay: neuronal differentiation score (DCX+ cell fraction vs untreated, manual image score) (score (-3 to 3)); higher = more neuronal differentiation; conditions: 2 uM, 2 weeks
# ReNCell VM [2] = assay: dopaminergic neuron differentiation score (TH+ cell fraction vs untreated, manual image score) (score (0 to 3)); higher = more TH+ dopaminergic neuron differentiation; conditions: 2 uM, 4 weeks, BDNF 10 ng/ml + GDNF 10 ng/ml
compound,measurement,setting,value
C[C@H](Cn1cnc2c(N)ncnc21)OCP(=O)(O)O,neuronal differentiation score,ReNCell VM [1]; library: Spectrum,inactive: 0
same,dopaminergic neuron differentiation score,ReNCell VM [2]; library: Spectrum,inactive: 0
CC(=O)O[C@H]1Cc2ccccc2N(C(N)=O)c2ccccc21,neuronal differentiation score,ReNCell VM [1]; library: LOPAC,inactive: 0
same,dopaminergic neuron differentiation score,ReNCell VM [2]; library: LOPAC,inactive: 0
CC1=C(C(=O)O)N2C(=O)[C@@H](NC(=O)[C@H](N)C3=CCC=CC3)[C@H]2SC1 [Cephradine],neuronal differentiation score,ReNCell VM [1]; library: LOPAC,inactive: 0
same,dopaminergic neuron differentiation score,ReNCell VM [2]; library: LOPAC,inactive: 1
C=C(C)[C@@H]1CC[C@]2(C(=O)O)CC[C@]3(C)[C@H](CC[C@@H]4[C@@]5(C)CC[C@H](O)C(C)(C)[C@@H]5CC[C@]43C)[C@@H]12 [Betulinic acid],neuronal differentiation score,ReNCell VM [1]; library: Phytochemical,inactive: 0
same,dopaminergic neuron differentiation score,ReNCell VM [2]; library: Phytochemical,inactive: 1
N#Cc1c(O)c2c(-c3ccc(-c4ccccc4O)cc3)csc2[nH]c1=O,neuronal differentiation score,ReNCell VM [1]; library: Tocriscreen,inactive: 0
same,dopaminergic neuron differentiation score,ReNCell VM [2]; library: Tocriscreen,inactive: 0
Cc1cccc(CCN2CCC(C(=O)c3ccc(NS(C)(=O)=O)cc3)CC2)n1 [E-4031 dihydrochloride],neuronal differentiation score,ReNCell VM [1]; library: Tocriscreen,inactive: 0
same,dopaminergic neuron differentiation score,ReNCell VM [2]; library: Tocriscreen,inactive: 0
CC(=O)Oc1cc(C(C)C)c(OCCN(C)C)cc1C [Moxisylyte hydrochoride],neuronal differentiation score,ReNCell VM [1]; library: Prestwick,inactive: 0
same,dopaminergic neuron differentiation score,ReNCell VM [2]; library: Prestwick,inactive: 0
COc1ccc(-c2cc3ccccc3c(=O)o2)cc1 [3-(4-methoxy-phenyl)-isochromen-1-one],neuronal differentiation score,ReNCell VM [1]; library: Natural,inactive: 0
same,dopaminergic neuron differentiation score,ReNCell VM [2]; library: Natural,inactive: 0
COc1cc(OC)c2c(=O)c(OC)c(-c3ccccc3)oc2c1,neuronal differentiation score,ReNCell VM [1]; library: Spectrum,inactive: 0
same,dopaminergic neuron differentiation score,ReNCell VM [2]; library: Spectrum,inactive: 1
CC[C@H](C)[C@H]1O[C@]2(C=C[C@@H]1C)C[C@@H]1C[C@@H](C/C=C(\C)[C@@H](O[C@H]3C[C@H](OC)[C@@H](O[C@H]4C[C@H](OC)[C@@H](O)[C@H](C)O4)[C@H](C)O3)[C@@H](C)/C=C/C=C3\CO[C@@H]4[C@H](OC)C(C)=C[C@@H](C(=O)O1)[C@]34O)O2,neuronal differentiation score,ReNCell VM [1]; library: Spectrum,inactive: 0
same,dopaminergic neuron differentiation score,ReNCell VM [2]; library: Spectrum,inactive: 0
"N/C(=N\C(=O)c1nc(Cl)c(N)nc1N)NCc1ccc(Cl)c(Cl)c1 [3',4'-Dichlorobenzamil]",neuronal differentiation score,ReNCell VM [1]; library: LOPAC,inactive: 0
same,dopaminergic neuron differentiation score,ReNCell VM [2]; library: LOPAC,inactive: 0
"O=C(/C=C/c1ccc(OCc2ccccc2)cc1OCc1ccccc1)c1ccc(OCc2ccccc2)cc1O [4,2,4'-Tribenzyloxy-6'-hydroxychalcone]",neuronal differentiation score,ReNCell VM [1]; library: Phytochemical,inactive: 0
same,dopaminergic neuron differentiation score,ReNCell VM [2]; library: Phytochemical,inactive: 0
NC(=O)N/N=C/c1ccc([N+](=O)[O-])o1 [Nitrofural],neuronal differentiation score,ReNCell VM [1]; library: Prestwick,inactive: 0
same,dopaminergic neuron differentiation score,ReNCell VM [2]; library: Prestwick,inactive: 0
COc1cc2nc(N3CCN(C(=O)C4CCCO4)CC3)nc(N)c2cc1OC (stereo unspecified),neuronal differentiation score,ReNCell VM [1]; library: Spectrum,inactive: 1
same,dopaminergic neuron differentiation score,ReNCell VM [2]; library: Spectrum,inactive: 0
CN(C)CCCN1c2ccccc2Sc2ccc(Cl)cc21,neuronal differentiation score,ReNCell VM [1]; library: Spectrum,inactive: 0
same,dopaminergic neuron differentiation score,ReNCell VM [2]; library: Spectrum,inactive: 0
Oc1c(Cl)cc(Cl)c2cccnc12 [Chloroxine],neuronal differentiation score,ReNCell VM [1]; library: Prestwick,inactive: 0
same,dopaminergic neuron differentiation score,ReNCell VM [2]; library: Prestwick,inactive: 0
COc1ccccc1Oc1coc2cc(O)ccc2c1=O [7-hydroxy-3-(2-methoxy-phenoxy)-chromen-4-one],neuronal differentiation score,ReNCell VM [1]; library: Natural,inactive: 0
same,dopaminergic neuron differentiation score,ReNCell VM [2]; library: Natural,inactive: 0
CC(C)NCC(O)COc1cccc2ccccc12 (stereo unspecified) [Propranolol hydrochloride],neuronal differentiation score,ReNCell VM [1]; library: Tocriscreen,inactive: 0
same,dopaminergic neuron differentiation score,ReNCell VM [2]; library: Tocriscreen,inactive: 0
"O=C(O)[C@H]1C[C@H](C(=O)O)N1 (relative stereo) [trans-Azetidine-2,4-dicarboxylic acid]",neuronal differentiation score,ReNCell VM [1]; library: LOPAC,inactive: 0
same,dopaminergic neuron differentiation score,ReNCell VM [2]; library: LOPAC,inactive: 0
Nc1ncn([C@@H]2O[C@H](CO)[C@@H](O)[C@H]2O)c(=O)n1 [5-azacytidine],neuronal differentiation score,ReNCell VM [1]; library: LOPAC,inactive: -3
same,dopaminergic neuron differentiation score,ReNCell VM [2]; library: LOPAC,inactive: 0
CC(C)(O)c1ccccc1CC[C@@H](SCC1(CC(=O)O)CC1)c1cccc(/C=C/c2ccc3ccc(Cl)cc3n2)c1,neuronal differentiation score,ReNCell VM [1]; library: Spectrum,inactive: 0
same,dopaminergic neuron differentiation score,ReNCell VM [2]; library: Spectrum,inactive: 0
CN1C(=O)C(Cc2c[nH]c3ccccc23)NC1=S (stereo unspecified) [Necrostatin-1],neuronal differentiation score,ReNCell VM [1]; library: Tocriscreen,inactive: 0
same,dopaminergic neuron differentiation score,ReNCell VM [2]; library: Tocriscreen,inactive: 0
"Cc1cn(C2C=CC(CO)O2)c(=O)[nH]c1=O (stereo unspecified) [2',3'-didehydro-3'-deoxythymidine]",neuronal differentiation score,ReNCell VM [1]; library: LOPAC,inactive: 0
same,dopaminergic neuron differentiation score,ReNCell VM [2]; library: LOPAC,inactive: 0
CCn1cc(C(=O)O)c(=O)c2cnc(N3CCCC3)nc21,neuronal differentiation score,ReNCell VM [1]; library: Spectrum,inactive: 0
same,dopaminergic neuron differentiation score,ReNCell VM [2]; library: Spectrum,inactive: 0
Cc1c(C(N)=O)cc([N+](=O)[O-])cc1[N+](=O)[O-],neuronal differentiation score,ReNCell VM [1]; library: Spectrum,inactive: 0
same,dopaminergic neuron differentiation score,ReNCell VM [2]; library: Spectrum,inactive: 0
Cc1cc(=O)[nH]c(=S)[nH]1,neuronal differentiation score,ReNCell VM [1]; library: Spectrum,inactive: 0
same,dopaminergic neuron differentiation score,ReNCell VM [2]; library: Spectrum,inactive: 0
CC(C(=O)O)c1ccc(N2Cc3ccccc3C2=O)cc1 (stereo unspecified) [Indoprofen],neuronal differentiation score,ReNCell VM [1]; library: Prestwick,inactive: 0
same,dopaminergic neuron differentiation score,ReNCell VM [2]; library: Prestwick,inactive: 0
CCC1=C[C@@H]2CN(C1)Cc1c([nH]c3ccccc13)[C@@](C(=O)OC)(c1cc3c(cc1OC)N(C)[C@H]1[C@@](O)(C(=O)OC)[C@H](OC(C)=O)[C@]4(CC)C=CCN5CC[C@]31[C@@H]54)C2,neuronal differentiation score,ReNCell VM [1]; library: Spectrum,inactive: 0
same,dopaminergic neuron differentiation score,ReNCell VM [2]; library: Spectrum,inactive: 0

# Reprinted at random: 2 entries already listed
compound,measurement,setting,value
CC(C)(O)c1ccccc1CC[C@@H](SCC1(CC(=O)O)CC1)c1cccc(/C=C/c2ccc3ccc(Cl)cc3n2)c1,dopaminergic neuron differentiation score,ReNCell VM [2]; library: Spectrum,inactive: 0
CCn1cc(C(=O)O)c(=O)c2cnc(N3CCCC3)nc21,dopaminergic neuron differentiation score,ReNCell VM [2]; library: Spectrum,inactive: 0
